Measurements reported in PubChem BioAssay AID1508588 (Peter MacCallum Cancer Centre, 2020).

Assay: 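Which gene losses make BRAF-mutant melanoma cells more responsive to vemurafenib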 (primary screen)
Cells: human WM266.4 melanoma cells (BRAF V600 mutant)
Reagents: siRNA pool against human genes, 40 nM
Timing: 96 h from transfection to read-out
Conditions: vemurafenib 300 nM (about IC25), added 48 h after transfection, for 48 h; comparison arm got DMSO vehicle only
Measurement: 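Ratios to non-targeting siRNA for cell gain, counted as DAPI nuclei after minus before drug and averaged over two replicates, and for absorbance-read medium lactate per cell; both binned into fold-change classes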
Direction: cell gain with vemurafenib: higher = more cell gain than with non-targeting siRNA; lactate per cell with vemurafenib: higher = more lactate made per cell
Call rule: 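Enhancement is called by pairing each knock-down's vehicle-arm and drug-arm fold-change classes for viability or glycolysis; which class combinations qualify is not given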
Calls: active = enhances vemurafenib effect; inactive = no enhancement seen
Shown is one part, drawn at random, of about 18,000 reagents tested. Of all reagents, 790 (4.4%) are marked active. 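Calls rest on a combination of fold-change classes in drug and vehicle arms, not all shown here.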 Reagent sequences are not shown.

| gene | cell gain with vemurafenib | lactate per cell with vemurafenib | activity call |
| --- | --- | --- | --- |
| ZC3H4 (zinc finger CCCH-type containing 4) | 0.81 | 0.74 | inactive |
| COP1 (COP1 E3 ubiquitin ligase) | 0.99 | 0.64 | inactive |
| ATP6V0E1 (ATPase H+ transporting V0 subunit e1) | 0 | 3.46 | inactive |
| PPIL3 (peptidylprolyl isomerase like 3) | 0.81 | 0.35 | active |
| PIKFYVE (phosphoinositide kinase, FYVE-type zinc finger containing) | 0.52 | 1.26 | inactive |
| ADAM11 (ADAM metallopeptidase domain 11) | 0.72 | 0.96 | inactive |
| ZNF655 (zinc finger protein 655) | -0.04 | 1.38 | inactive |
| CELSR3 (cadherin EGF LAG seven-pass G-type receptor 3) | 0.07 | 2.17 | inactive |
| CD1B (CD1b molecule) | 0.56 | 1.33 | inactive |
| ELOA (elongin A) | 1.18 | 0.57 | inactive |
| EREG (epiregulin) | 0.27 | 1.28 | inactive |
| PTPRE (protein tyrosine phosphatase receptor type E) | 0.69 | 0.24 | inactive |
| KIN (Kin17 DNA and RNA binding protein) | 1.08 | 0.59 | inactive |
| PGRMC1 (progesterone receptor membrane component 1) | 0.42 | 0.6 | inactive |
| RPE (ribulose-5-phosphate-3-epimerase) | 0.83 | 0.98 | inactive |
| CFD (complement factor D) | 0.69 | 1.1 | inactive |
| ZNG1C (Zn regulated GTPase metalloprotein activator 1C) | 0.92 | 0.86 | inactive |
| DOCK6 (dedicator of cytokinesis 6) | 0.53 | 1.14 | inactive |
| NXT1 (nuclear transport factor 2 like export factor 1) | 1.63 | 1.01 | inactive |
| MS4A8 (membrane spanning 4-domains A8) | 0.52 | 0.54 | inactive |
| CCDC125 (coiled-coil domain containing 125) | 0.41 | 0.46 | inactive |
| MAP3K11 (mitogen-activated protein kinase kinase kinase 11) | 0.12 | 2.08 | inactive |
| SPRR4 (small proline rich protein 4) | 0.48 | 0.66 | inactive |
| DUSP14 (dual specificity phosphatase 14) | 0.84 | 0.94 | inactive |
| AK2 (adenylate kinase 2) | 0.23 | 1.25 | inactive |
| CNN3 (calponin 3) | 0.3 | 0.94 | inactive |
| NASP (nuclear autoantigenic sperm protein) | 0.37 | 0.38 | inactive |
| CAMKV (CaM kinase like vesicle associated) | 0.45 | 0.66 | inactive |
| BNIP5 (BCL2 interacting protein 5) | 0.48 | 0.8 | inactive |
| NUTF2 (nuclear transport factor 2) | -0.04 | 3.33 | inactive |
| CENPT (centromere protein T) | 0.87 | 1.07 | inactive |
| MACO1 (macoilin 1) | 1.44 | 0.28 | inactive |
| MGAT4A | 0.72 | 1.42 | inactive |
| S100A10 (S100 calcium binding protein A10) | 0.44 | 0.76 | inactive |
| PBDC1 (polysaccharide biosynthesis domain containing 1) | 0.91 | 0.87 | inactive |
| IMPDH1 (inosine monophosphate dehydrogenase 1) | 0.81 | 0.57 | inactive |
| CFAP54 (cilia and flagella associated protein 54) | 0.87 | 0.76 | inactive |
| GAB4 (GRB2 associated binding protein family member 4) | 0.94 | 0.78 | inactive |
| C9orf163 (chromosome 9 putative open reading frame 163) | 1.18 | 0.77 | inactive |
| KRT27 (keratin 27) | 0.86 | 0.82 | inactive |
| CHL1 (cell adhesion molecule L1 like) | 0.69 | 0.99 | inactive |
| CFAP65 (cilia and flagella associated protein 65) | 0.69 | 0.63 | inactive |
| DYNLRB2 (dynein light chain roadblock-type 2) | 0.26 | 0.68 | inactive |
| FAM153CP (family with sequence similarity 153 member C, pseudogene) | 0.16 | 0.53 | inactive |
| P2RY8 (P2Y receptor family member 8) | 0.64 | 1.03 | inactive |
| ZSWIM7 (zinc finger SWIM-type containing 7) | 0.49 | 0.79 | inactive |
| FCRL3 (Fc receptor like 3) | 0.63 | 1.02 | inactive |
| ANKRD7 (ankyrin repeat domain 7) | 0.12 | 1.5 | inactive |
| ENPP1 (ectonucleotide pyrophosphatase/phosphodiesterase 1) | 0.27 | 0.58 | inactive |
| RBM38 (RNA binding motif protein 38) | 1 | 1.54 | inactive |
| FSHR (follicle stimulating hormone receptor) | 1.08 | 1.12 | inactive |
| SAXO1 (stabilizer of axonemal microtubules 1) | 1.12 | 1.04 | inactive |
| THAP5 (THAP domain containing 5) | 0.69 | 0.82 | inactive |
| AKAP8 (A-kinase anchoring protein 8) | 0.18 | 1.36 | inactive |
| METTL27 (methyltransferase like 27) | 0.84 | 1.38 | inactive |
| STK11IP (serine/threonine kinase 11 interacting protein) | 0.77 | 1.39 | inactive |
| ZNF419 (zinc finger protein 419) | 0.87 | 0.65 | inactive |

Looked up above:
Under “cell gain with vemurafenib”, ZNG1C (Zn regulated GTPase metalloprotein activator 1C) shows 0.92
For “cell gain with vemurafenib”, MAP3K11 (mitogen-activated protein kinase kinase kinase 11) shows 0.12
Result of KRT27 (keratin 27) in “cell gain with vemurafenib”: 0.86
Value for PIKFYVE (phosphoinositide kinase, FYVE-type zinc finger containing) under “cell gain with vemurafenib”: 0.52
FCRL3 (Fc receptor like 3), activity call = inactive
